Values quoted from earlier work as cited in patent US20020034537A1, “Cationic diagnostic, imaging and therapeutic agents associated with activated vascular sites” (priority 2000, published 2002).
At least one read-out could not be matched to a standard name with certainty.

Conditions: Adamson et al. (1988); cited from earlier work

B1: ribonuclease: protein, net charge +4; MW 13,683 (Adamson et al. 1988) (protein, UniProt P61823 27-150, looked up)
Ribonuclease pancreatic: KETAAAKFERQHMDSSTSAASSSNYCNQMMKSRNLTKDRCKPVNTFVHESLADVQAVCSQKNVACKNGQTNCYQSYSTMSITDCRETGSSKYPNCAYKTTQANKHIIVACEGNPYVPVHFDASV
vascular permeability relative to a-lactalbumin: twice as high
